The list shows only some results of the screen, not a fair sample: it gathers tests that were run many times, whatever their T/C, doses with no T/C, and many T/C values between a quarter and a half above the control. Further doses and runs are listed elsewhere. T/C is the treated group as % of the vehicle group. Some doses have a count of surviving animals in place of a T/C: the source holds a T/C of zero for them, seemingly a mark for toxic or unscored doses. Some doses without a T/C left all or most animals alive at the check, yet need not have been tolerated: the source hardly ever lists a survival T/C far under the control, and the zero likely stands for such cases as well. Survivors were counted at the toxicity check, usually on the fifth day, unless a day is given; later deaths do not show. Schedule codes are those of the source, read here as Q, the interval in days (D) or hours (H), X, the number of doses. Some entries hold several experiments; their values stand side by side, smallest first. For survival time, the PubChem record calls one and a half times the control and up active, and a quarter to a half above the control has no call in these data; cut-offs in other NCI protocols can differ.
Test system: CD2F1 mice, L1210 leukemia ip, survival T/C
Assay: NCI In Vivo Anticancer Drug Screen. Data for tumor model L1210 Leukemia (intraperitoneal) in CD2F1 (CDF1) mice
Settings: higher T/C = longer survival
Method: The antitumor activity of compounds was measured in mice bearing transplantable tumors. Survival or tumor size were measured and the results are expressed as the measurement made in the treated group (T) divided by the measurement made in the vehicle treated control group (C). The tumor model used in this assay is L1210 Leukemia (intraperitoneal) in CD2F1 (CDF1) mice

[1] = T/C endpoint: mean survival time, dose: 50.0 mg/kg/injection, schedule: Q01DX009 (ip), vehicle: saline with Tween-80
[2] = T/C endpoint: median survival time, dose: 100.0 mg/kg/injection, schedule: Q01DX005 (ip), vehicle: Klucel (hydroxypropylcellulose) (HPC)

CC1=C(C)C(=O)O[C@@H]([C@](C)(O)[C@]2(O)CC[C@@]3(O)[C@@H]4C[C@H]5O[C@]56[C@@H](O)C=CC(=O)[C@]6(C)[C@H]4CC[C@]23C)C1
survivor count (T/C endpoint: mean survival time, dose: 64.0 mg/kg/injection, schedule: Q01DX009 (ip), vehicle: suspension in saline): 0 of 6

CCCCCCCCCCCC(=O)/C=C/Sc1n[nH]c(=O)[nH]c1=O
survivor count (T/C endpoint: mean survival time, dose: 200.0 mg/kg/injection, schedule: Q01DX005 (ip), vehicle: distilled water + Tween-80): 2 of 6

COc1ccc([Se][Se]c2ccc(OC)cc2NC(C)=O)c(NC(C)=O)c1
survivor count (T/C endpoint: mean survival time, dose: 400.0 mg/kg/injection, schedule: Q04DX003 (ip), vehicle: saline with Tween-80): 6 of 6

O=C(CCNC(=O)OCc1ccccc1)NC(CSCc1ccccc1)C(=O)O (stereo unspecified)
survivor count (T/C endpoint: mean survival time, dose: 400.0 mg/kg/injection, schedule: Q01DX005 (ip), vehicle: water): 1 of 6

NC(=O)C1=CC2C3C=CC2(O)C(=O)OC3O1 (stereo unspecified)
T/C (T/C endpoint: median survival time, dose: 3.75 mg/kg/injection, schedule: Q01DX009 (ip), vehicle: Klucel (hydroxypropylcellulose) (HPC)): 125 % of control
T/C (T/C endpoint: median survival time, dose: 15.0 mg/kg/injection, schedule: Q01DX009 (ip), vehicle: Klucel (hydroxypropylcellulose) (HPC)): 142 % of control
survivor count (T/C endpoint: median survival time, dose: 60.0 mg/kg/injection, schedule: Q01DX009 (ip), vehicle: Klucel (hydroxypropylcellulose) (HPC)): 0 of 6

O=C(CNC(=O)Nc1cccc(C(F)(F)F)c1)N/N=C/c1ccccc1O
survivor count [1]: 3 of 3

CCOC(=O)Nc1cc(NC(C)/C(=N/O)c2ccccc2)c([N+](=O)[O-])c(N)n1 (stereo unspecified)
T/C (T/C endpoint: median survival time, dose: 72.0 mg/kg/injection, schedule: Q01DX005 (ip), vehicle: Klucel (hydroxypropylcellulose) (HPC)): 128 and 135 % of control
T/C [2]: 138 % of control
survivor count [2]: 6 of 6
survivor count (T/C endpoint: median survival time, dose: 120.0 mg/kg/injection, schedule: Q01DX005 (ip), vehicle: Klucel (hydroxypropylcellulose) (HPC)): 6 of 6
survivor count (T/C endpoint: median survival time, dose: 200.0 mg/kg/injection, schedule: Q01DX005 (ip), vehicle: Klucel (hydroxypropylcellulose) (HPC)): 3 of 6 and 6 of 6
survivor count (T/C endpoint: median survival time, dose: 333.3 mg/kg/injection, schedule: Q01DX005 (ip), vehicle: Klucel (hydroxypropylcellulose) (HPC)): 3 of 6
survivor count (T/C endpoint: median survival time, dose: 400.0 mg/kg/injection, schedule: Q01DX005 (ip), vehicle: Klucel (hydroxypropylcellulose) (HPC)): 2 of 6 and 3 of 6
survivor count (T/C endpoint: median survival time, dose: 555.5 mg/kg/injection, schedule: Q01DX005 (ip), vehicle: Klucel (hydroxypropylcellulose) (HPC)): 1 of 6

COc1cccc2c1C(=O)OC2=O
survivor count (T/C endpoint: mean survival time, dose: 400.0 mg/kg/injection, schedule: Q01DX005 (ip), vehicle: Klucel (hydroxypropylcellulose) (HPC)): 1 of 5

CO[C@@]12[C@@H]3N[C@@H]3CN1C1=C(C(=O)C(NCCC#N)=C(C)C1=O)[C@@H]2COC(N)=O
T/C (T/C endpoint: mean survival time, dose: 3.0 mg/kg/injection, schedule: Q01DX001 (ip), vehicle: water): 129 % of control
T/C (T/C endpoint: mean survival time, dose: 6.0 mg/kg/injection, schedule: Q01DX001 (ip), vehicle: water): 132 % of control
T/C (T/C endpoint: mean survival time, dose: 12.0 mg/kg/injection, schedule: Q01DX001 (ip), vehicle: water): 137 % of control
survivor count (T/C endpoint: mean survival time, dose: 24.0 mg/kg/injection, schedule: Q01DX001 (ip), vehicle: water): 3 of 6

Cc1ccc(/C=N/NC(=O)CNC(=O)Nc2cccc([N+](=O)[O-])c2)cc1
survivor count (T/C endpoint: mean survival time, dose: 200.0 mg/kg/injection, schedule: Q01DX009 (ip), vehicle: saline with Tween-80): 3 of 3

ClC1(Cl)C2CCCCCCC21 (stereo unspecified)
survivor count (T/C endpoint: mean survival time, dose: 400.0 mg/kg/injection, schedule: Q04DX002 (ip), vehicle: saline with Tween-80): 0 of 3

c1cc[c]([Pb]([c]2ccccc2)([c]2ccccc2)[n]2cccc2)cc1
survivor count (T/C endpoint: mean survival time, dose: 25.0 mg/kg/injection, schedule: Q01DX009 (ip), vehicle: acetone): 0 of 6
survivor count (T/C endpoint: mean survival time, dose: 50.0 mg/kg/injection, schedule: Q04DX003 (ip), vehicle: acetone): 4 of 6

Cc1ccc[n+](CC(O)c2ccc(C(O)C[n+]3cccc(C)c3)cc2)c1 (stereo unspecified)
survivor count (T/C endpoint: mean survival time, dose: 0.3 mg/kg/injection, schedule: Q04DX003 (ip), vehicle: saline): 3 of 6

C/C=C(\C)C1(CCC)C(=O)NC(=S)NC1=O
survivor count (T/C endpoint: mean survival time, dose: 300.0 mg/kg/injection, schedule: Q01DX001 (ip), vehicle: other): 1 of 6

Oc1ccc(C=NCCN=Cc2ccc(O)cc2O)c(O)c1
T/C (T/C endpoint: mean survival time, dose: 6.25 mg/kg/injection, schedule: Q01DX009 (ip), vehicle: saline with Tween-80): 128 % of control
T/C (T/C endpoint: mean survival time, dose: 12.5 mg/kg/injection, schedule: Q01DX009 (ip), vehicle: saline with Tween-80): 134 % of control
survivor count [1]: 6 of 6
survivor count (T/C endpoint: mean survival time, dose: 200.0 mg/kg/injection, schedule: Q04DX003 (ip), vehicle: saline with Tween-80): 6 of 6

Source: PubChem BioAssay AID256 (DTP/NCI, 2004)
